Laboratory results as given in the supplement of paper PMC12823440, “Inhibitors supercharge kinase turnover through native proteolytic circuits” (Nature, 2025).
Structures can show the parent of a compound that is named as a salt. This is one part of the list. The calls rarely recur for the same compound in another form.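 Kinases were expressed as nanoluciferase fusions in K562 cells and luminescence was read every 4 h between 2 and 18 h as percent of control, DMSO set to 100% and a positive control to 0%. A time point counts as decreased when the signal drops significantly (2 sigma). The hit call is the authors' own, does not follow from the count of time points alone, and its rule is not shown.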

The chains behind the UniProt entries cited, without tags or fusion partners. Where a name states a change or a piece, a line headed by the entry shows the natural chain unless it says otherwise.
UniProt P28482, whole entry: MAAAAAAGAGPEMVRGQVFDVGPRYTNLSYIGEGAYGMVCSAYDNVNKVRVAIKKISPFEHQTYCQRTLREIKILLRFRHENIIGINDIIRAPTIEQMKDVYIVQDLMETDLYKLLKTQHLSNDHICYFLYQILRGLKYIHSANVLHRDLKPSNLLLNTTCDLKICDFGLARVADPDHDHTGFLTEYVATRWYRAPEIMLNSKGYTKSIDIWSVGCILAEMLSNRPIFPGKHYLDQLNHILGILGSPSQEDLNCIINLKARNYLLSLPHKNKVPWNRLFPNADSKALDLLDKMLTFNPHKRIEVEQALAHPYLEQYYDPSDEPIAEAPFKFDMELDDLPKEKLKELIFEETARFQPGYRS
UniProt Q16620, whole entry, looked up: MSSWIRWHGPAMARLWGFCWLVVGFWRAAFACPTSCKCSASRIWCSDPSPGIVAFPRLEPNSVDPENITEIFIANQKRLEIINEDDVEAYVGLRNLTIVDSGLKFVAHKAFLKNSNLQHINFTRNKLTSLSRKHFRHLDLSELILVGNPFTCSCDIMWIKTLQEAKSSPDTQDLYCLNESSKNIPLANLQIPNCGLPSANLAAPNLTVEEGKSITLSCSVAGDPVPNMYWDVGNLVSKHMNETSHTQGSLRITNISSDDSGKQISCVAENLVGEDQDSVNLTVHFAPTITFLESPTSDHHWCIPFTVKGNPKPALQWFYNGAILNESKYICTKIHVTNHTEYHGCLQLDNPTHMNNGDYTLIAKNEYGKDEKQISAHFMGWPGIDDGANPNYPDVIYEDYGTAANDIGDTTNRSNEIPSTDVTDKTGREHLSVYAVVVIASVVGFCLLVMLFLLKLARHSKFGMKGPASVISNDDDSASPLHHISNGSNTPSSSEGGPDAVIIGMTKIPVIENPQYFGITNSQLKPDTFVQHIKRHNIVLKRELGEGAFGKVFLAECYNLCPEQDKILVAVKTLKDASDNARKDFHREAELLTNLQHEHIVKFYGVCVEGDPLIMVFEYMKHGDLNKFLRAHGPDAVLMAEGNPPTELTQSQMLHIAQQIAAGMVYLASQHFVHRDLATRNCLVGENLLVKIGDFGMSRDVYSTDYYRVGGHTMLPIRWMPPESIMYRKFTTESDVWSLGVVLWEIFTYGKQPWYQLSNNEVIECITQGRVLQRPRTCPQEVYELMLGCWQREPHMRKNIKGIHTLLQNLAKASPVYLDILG
UniProt O96013: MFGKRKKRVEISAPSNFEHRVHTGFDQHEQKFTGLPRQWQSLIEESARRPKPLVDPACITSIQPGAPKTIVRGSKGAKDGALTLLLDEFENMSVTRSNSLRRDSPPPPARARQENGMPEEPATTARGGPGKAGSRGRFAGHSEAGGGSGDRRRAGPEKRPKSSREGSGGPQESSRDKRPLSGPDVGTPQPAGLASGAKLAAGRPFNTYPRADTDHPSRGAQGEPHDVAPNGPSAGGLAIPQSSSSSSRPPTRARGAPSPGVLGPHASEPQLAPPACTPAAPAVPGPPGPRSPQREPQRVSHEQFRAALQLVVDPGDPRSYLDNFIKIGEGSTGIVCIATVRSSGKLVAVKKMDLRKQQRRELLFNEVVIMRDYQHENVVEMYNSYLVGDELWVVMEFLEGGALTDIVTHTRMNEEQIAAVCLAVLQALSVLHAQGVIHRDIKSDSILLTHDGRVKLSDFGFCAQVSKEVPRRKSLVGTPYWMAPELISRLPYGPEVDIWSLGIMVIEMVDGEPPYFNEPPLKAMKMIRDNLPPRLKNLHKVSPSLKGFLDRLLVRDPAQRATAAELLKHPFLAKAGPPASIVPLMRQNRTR
UniProt Q15118, whole entry, looked up: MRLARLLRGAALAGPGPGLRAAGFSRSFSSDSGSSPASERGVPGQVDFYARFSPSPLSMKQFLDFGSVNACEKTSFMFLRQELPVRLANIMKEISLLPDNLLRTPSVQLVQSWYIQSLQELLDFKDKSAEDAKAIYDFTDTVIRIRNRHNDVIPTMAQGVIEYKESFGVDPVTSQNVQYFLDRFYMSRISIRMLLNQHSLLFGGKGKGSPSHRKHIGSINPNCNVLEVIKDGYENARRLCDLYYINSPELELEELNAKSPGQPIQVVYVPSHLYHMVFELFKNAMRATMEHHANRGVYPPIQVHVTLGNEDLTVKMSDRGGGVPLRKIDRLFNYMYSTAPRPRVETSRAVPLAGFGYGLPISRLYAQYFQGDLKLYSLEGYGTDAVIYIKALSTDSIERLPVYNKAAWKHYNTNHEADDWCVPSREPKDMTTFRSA
UniProt O15530: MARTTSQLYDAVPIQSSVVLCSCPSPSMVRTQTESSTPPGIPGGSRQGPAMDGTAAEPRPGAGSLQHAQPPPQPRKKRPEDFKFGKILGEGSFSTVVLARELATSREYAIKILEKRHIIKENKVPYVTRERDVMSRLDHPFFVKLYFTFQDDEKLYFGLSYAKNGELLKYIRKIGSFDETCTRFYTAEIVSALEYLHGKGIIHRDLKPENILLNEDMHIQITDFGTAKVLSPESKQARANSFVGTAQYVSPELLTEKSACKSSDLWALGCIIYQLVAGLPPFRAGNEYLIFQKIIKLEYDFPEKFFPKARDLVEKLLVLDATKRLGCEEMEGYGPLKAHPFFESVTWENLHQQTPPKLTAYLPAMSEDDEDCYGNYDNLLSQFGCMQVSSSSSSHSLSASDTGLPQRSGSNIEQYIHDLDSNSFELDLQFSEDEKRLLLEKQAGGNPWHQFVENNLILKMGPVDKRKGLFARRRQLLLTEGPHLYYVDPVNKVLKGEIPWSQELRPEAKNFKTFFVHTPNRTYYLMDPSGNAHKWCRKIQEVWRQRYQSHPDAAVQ
UniProt P42356, whole entry, looked up: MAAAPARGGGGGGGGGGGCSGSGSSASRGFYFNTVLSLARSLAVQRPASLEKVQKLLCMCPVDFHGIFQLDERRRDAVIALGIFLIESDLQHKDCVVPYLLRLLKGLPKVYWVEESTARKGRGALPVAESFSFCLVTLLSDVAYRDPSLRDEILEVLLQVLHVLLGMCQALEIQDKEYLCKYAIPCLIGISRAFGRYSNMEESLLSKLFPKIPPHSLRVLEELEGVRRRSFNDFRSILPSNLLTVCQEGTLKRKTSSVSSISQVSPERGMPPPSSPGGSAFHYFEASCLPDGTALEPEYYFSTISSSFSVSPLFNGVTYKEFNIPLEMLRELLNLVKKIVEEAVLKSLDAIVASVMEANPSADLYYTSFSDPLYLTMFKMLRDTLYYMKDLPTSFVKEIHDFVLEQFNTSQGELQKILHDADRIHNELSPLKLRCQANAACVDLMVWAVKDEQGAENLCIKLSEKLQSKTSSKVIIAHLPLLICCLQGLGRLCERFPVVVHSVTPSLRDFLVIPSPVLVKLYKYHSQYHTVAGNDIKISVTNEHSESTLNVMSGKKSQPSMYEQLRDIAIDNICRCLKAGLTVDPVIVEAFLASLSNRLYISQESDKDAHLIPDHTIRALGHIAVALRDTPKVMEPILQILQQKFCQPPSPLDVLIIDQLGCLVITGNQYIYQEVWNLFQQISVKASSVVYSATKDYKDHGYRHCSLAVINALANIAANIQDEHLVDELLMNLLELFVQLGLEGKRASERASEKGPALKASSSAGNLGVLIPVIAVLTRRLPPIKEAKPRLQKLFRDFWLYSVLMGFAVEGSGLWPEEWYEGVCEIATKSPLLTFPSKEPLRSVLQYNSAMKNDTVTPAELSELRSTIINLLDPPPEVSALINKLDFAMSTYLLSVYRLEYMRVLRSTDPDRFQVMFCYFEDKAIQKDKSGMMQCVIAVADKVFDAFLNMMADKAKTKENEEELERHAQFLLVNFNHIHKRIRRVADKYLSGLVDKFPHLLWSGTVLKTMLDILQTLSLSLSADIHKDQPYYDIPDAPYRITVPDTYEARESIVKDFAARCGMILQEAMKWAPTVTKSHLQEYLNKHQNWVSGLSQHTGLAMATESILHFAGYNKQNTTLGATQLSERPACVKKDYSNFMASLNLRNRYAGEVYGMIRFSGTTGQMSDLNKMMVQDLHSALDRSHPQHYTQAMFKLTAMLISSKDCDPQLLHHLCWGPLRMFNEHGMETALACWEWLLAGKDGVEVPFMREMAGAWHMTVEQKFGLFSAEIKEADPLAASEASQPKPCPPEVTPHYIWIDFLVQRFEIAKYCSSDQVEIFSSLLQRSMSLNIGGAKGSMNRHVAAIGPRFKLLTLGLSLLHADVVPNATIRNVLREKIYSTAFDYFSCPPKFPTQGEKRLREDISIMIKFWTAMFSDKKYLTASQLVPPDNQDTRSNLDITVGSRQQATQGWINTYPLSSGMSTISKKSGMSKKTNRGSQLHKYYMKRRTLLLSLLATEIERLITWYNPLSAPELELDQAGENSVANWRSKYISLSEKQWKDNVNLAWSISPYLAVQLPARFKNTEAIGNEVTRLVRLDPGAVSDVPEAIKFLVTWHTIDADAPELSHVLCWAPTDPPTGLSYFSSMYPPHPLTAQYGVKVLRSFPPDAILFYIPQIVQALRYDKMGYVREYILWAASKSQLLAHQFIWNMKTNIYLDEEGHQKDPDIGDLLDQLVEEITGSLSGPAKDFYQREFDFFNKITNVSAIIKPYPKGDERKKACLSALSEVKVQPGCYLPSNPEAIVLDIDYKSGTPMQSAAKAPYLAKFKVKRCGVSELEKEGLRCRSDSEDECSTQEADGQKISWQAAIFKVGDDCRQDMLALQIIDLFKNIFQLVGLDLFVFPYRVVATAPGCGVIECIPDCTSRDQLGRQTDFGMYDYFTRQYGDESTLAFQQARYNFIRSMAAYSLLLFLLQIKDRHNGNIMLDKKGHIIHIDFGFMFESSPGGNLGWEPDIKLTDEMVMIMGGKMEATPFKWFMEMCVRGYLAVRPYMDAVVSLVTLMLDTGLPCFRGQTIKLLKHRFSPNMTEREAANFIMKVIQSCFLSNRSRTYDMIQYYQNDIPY
UniProt Q13131: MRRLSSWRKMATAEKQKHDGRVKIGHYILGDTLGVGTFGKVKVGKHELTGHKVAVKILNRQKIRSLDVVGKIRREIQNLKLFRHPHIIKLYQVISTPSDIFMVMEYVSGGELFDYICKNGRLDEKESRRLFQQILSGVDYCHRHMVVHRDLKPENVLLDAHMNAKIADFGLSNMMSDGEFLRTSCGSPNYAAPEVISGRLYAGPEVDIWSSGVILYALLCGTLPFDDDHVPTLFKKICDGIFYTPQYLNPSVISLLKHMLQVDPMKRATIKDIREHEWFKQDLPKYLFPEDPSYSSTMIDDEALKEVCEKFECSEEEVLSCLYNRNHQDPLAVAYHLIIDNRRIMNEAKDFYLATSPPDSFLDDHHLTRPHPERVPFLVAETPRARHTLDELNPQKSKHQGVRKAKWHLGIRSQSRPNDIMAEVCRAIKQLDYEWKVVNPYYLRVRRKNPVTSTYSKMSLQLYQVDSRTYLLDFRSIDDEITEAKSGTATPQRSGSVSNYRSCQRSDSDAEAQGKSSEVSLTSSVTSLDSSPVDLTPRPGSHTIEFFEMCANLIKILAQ
UniProt Q14289, whole entry, looked up: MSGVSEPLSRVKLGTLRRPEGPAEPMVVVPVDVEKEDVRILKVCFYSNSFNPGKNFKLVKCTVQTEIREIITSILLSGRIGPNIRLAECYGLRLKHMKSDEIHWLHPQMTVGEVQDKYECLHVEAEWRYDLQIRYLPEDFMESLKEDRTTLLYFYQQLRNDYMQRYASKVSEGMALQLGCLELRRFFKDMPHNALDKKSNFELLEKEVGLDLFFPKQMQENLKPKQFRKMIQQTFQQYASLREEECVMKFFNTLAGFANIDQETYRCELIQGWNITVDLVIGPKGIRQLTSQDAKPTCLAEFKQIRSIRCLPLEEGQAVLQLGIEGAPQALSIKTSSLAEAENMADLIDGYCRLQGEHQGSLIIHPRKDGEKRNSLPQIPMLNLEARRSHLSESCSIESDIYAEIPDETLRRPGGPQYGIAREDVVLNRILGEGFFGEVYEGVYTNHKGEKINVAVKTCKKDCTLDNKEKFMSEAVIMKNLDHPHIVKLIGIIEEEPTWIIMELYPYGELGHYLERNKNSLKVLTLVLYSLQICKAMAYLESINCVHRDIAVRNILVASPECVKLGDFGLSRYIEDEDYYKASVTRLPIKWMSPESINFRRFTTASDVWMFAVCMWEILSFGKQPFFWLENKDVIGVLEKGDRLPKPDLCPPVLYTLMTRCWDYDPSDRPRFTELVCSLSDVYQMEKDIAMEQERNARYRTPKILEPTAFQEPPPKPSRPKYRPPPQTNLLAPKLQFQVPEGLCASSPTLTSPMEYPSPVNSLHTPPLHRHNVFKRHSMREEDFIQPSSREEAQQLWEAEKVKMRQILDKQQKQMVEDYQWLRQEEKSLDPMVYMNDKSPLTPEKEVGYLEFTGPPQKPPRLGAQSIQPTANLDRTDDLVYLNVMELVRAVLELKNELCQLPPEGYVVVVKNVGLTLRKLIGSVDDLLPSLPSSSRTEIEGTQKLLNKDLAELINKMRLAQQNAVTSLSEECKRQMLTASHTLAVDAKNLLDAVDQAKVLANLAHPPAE

What was measured:
Test in all cases: kinase-Nluc reporter destabilization hit call (1 = scored as downregulated) (binary); higher = compound decreases kinase abundance
Conditions in all cases: K562; 2-18 h
[1] = biological target: MAPK1 (UniProt P28482)
[2] = biological target: MAPK4 (UniProt P31152)
[3] = biological target: MAPKAPK2 (UniProt P49137)
[4] = biological target: MKNK1 (UniProt Q9BUB5)
[5] = biological target: NTRK2 (UniProt Q16620)
[6] = biological target: NTRK3 (UniProt Q16288)
[7] = biological target: PAK4 (UniProt O96013)
[8] = biological target: PBK (UniProt Q96KB5)
[9] = biological target: PDGFRB (UniProt P09619)
[10] = biological target: PDK1 (UniProt Q15118)
[11] = biological target: PDPK1 (UniProt O15530)
[12] = biological target: PIK4CA (UniProt P42356)
[13] = biological target: PIK4CB (UniProt Q9UBF8)
[14] = biological target: PLK1 (UniProt P53350)
[15] = biological target: PRKAA1 (UniProt Q13131)
[16] = biological target: PRKCA (UniProt P17252)
[17] = biological target: PTK2 (UniProt Q05397)
[18] = biological target: PTK2B (UniProt Q14289)
[19] = biological target: RAF1 (UniProt P04049)
[20] = biological target: RAF1_S257L (clone: RAF1_mut) (UniProt P04049)

Measured: kinase-Nluc reporter destabilization hit call

O=C1Nc2ccccc2/C1=C/c1ccc(F)cc1 (10 µM)
inactive: [1] 0 | [2] 0 | [3] 0 | [4] 0 | [5] 0 | [6] 0 | [7] 0 | [8] 0 | [9] 0 | [10] 0 | [11] 0 | [12] 0 | [13] 0 | [14] 0 | [15] 0 | [16] 0 | [17] 0 | [18] 0 | [19] 0 | [20] 0

O=c1oc2c(C3OCCCO3)c(O)ccc2c2c1CNCC2 (10 µM)
inactive: [1] 0 | [2] 0 | [3] 0 | [4] 0 | [5] 0 | [6] 0 | [7] 0 | [8] 0 | [9] 0 | [10] 0 | [11] 0 | [12] 0 | [13] 0 | [14] 0 | [15] 0 | [16] 0 | [17] 0 | [18] 0 | [19] 0 | [20] 0

C=CC(=O)N[C@H]1COC[C@H]1Nc1ncc2cc(-c3c(Cl)c(OC)cc(OC)c3Cl)c(=O)n(C)c2n1 (10 µM)
inactive: [1] 0 | [2] 0 | [3] 0 | [4] 0 | [5] 0 | [6] 0 | [7] 0 | [8] 0 | [9] 0 | [10] 0 | [11] 0 | [12] 0 | [13] 0 | [14] 0 | [15] 0 | [16] 0 | [17] 0 | [18] 0 | [19] 0 | [20] 0

Cc1ccc(NC(=O)Nc2nnc(Sc3ncnc4cc(OCCCN5CCOCC5)ccc34)s2)cc1 (10 µM)
inactive: [1] 0 | [2] 0 | [3] 0 | [4] 0 | [5] 0 | [6] 0 | [7] 0 | [8] 0 | [9] 0 | [10] 0 | [11] 0 | [12] 0 | [13] 0 | [14] 0 | [15] 0 | [16] 0 | [17] 0 | [18] 0 | [19] 0 | [20] 0

C[C@H](NC(=O)/C(C#N)=C/c1cccc(Br)n1)c1ccccc1 (2.5 µM)
inactive: [1] 0 | [2] 0 | [3] 0 | [4] 0 | [5] 0 | [6] 0 | [7] 0 | [8] 0 | [9] 0 | [10] 0 | [11] 0 | [12] 0 | [13] 0 | [14] 0 | [15] 0 | [16] 0 | [17] 0 | [18] 0 | [19] 0 | [20] 0

CC(C)n1cnc2c(NCc3cccc(C(F)(F)F)c3)ncnc21 [Longdaysin] (10 µM)
inactive: [1] 0 | [2] 0 | [3] 0 | [4] 0 | [5] 0 | [6] 0 | [7] 0 | [8] 0 | [9] 0 | [10] 0 | [11] 0 | [12] 0 | [13] 0 | [14] 0 | [15] 0 | [16] 0 | [17] 0 | [18] 0 | [19] 0 | [20] 0

CC(C)=CC/C=C(\C)[C@H]1CC[C@]2(C)[C@@H]1[C@H](O)C[C@@H]1[C@@]3(C)CC[C@H](O[C@@H]4O[C@H](CO)[C@@H](O)[C@H](O)[C@H]4O[C@@H]4O[C@H](CO)[C@@H](O)[C@H](O)[C@H]4O)C(C)(C)[C@@H]3CC[C@]12C [Ginsenoside Rg5] (10 µM)
inactive: [1] 0 | [2] 0 | [3] 0 | [4] 0 | [5] 0 | [6] 0 | [7] 0 | [8] 0 | [9] 0 | [10] 0 | [11] 0 | [12] 0 | [13] 0 | [14] 0 | [15] 0 | [16] 0 | [17] 0 | [18] 0 | [19] 0 | [20] 0

COc1c(CC=C(C)C)c(O)cc2oc(=O)c(-c3ccc(O)cc3O)cc12 [Glycycoumarin] (10 µM)
inactive: [1] 0 | [2] 0 | [3] 0 | [4] 0 | [5] 0 | [6] 0 | [7] 0 | [8] 0 | [9] 0 | [10] 0 | [11] 0 | [12] 0 | [13] 0 | [14] 0 | [15] 0 | [16] 0 | [17] 0 | [18] 0 | [19] 0 | [20] 0

O=c1c(O)c(-c2ccc(O)c(O)c2)oc2cc(O)cc(O)c12 [Quercetin (dihydrate)] (10 µM)
inactive: [1] 0 | [2] 0 | [3] 0 | [4] 0 | [5] 0 | [6] 0 | [7] 0 | [8] 0 | [9] 0 | [10] 0 | [11] 0 | [12] 0 | [13] 0 | [14] 0 | [15] 0 | [16] 0 | [17] 0 | [18] 0 | [19] 0 | [20] 0

CC(C)(C)n1nc(Cc2cccc3ccccc23)c2c(N)ncnc21 (10 µM)
inactive: [1] 0 | [2] 0 | [3] 0 | [4] 0 | [5] 0 | [6] 0 | [7] 0 | [8] 0 | [9] 0 | [10] 0 | [11] 0 | [12] 0 | [13] 0 | [14] 0 | [15] 0 | [16] 0 | [17] 0 | [18] 0 | [19] 0 | [20] 0

Nc1ncnc2c1c(-c1cccc(OCc3ccccc3)c1)cn2C1CC(CN2CCCC2)C1 (stereo not given) (2.5 µM)
inactive: [1] 0 | [2] 0 | [3] 0 | [4] 0 | [5] 0 | [6] 0 | [7] 0 | [8] 0 | [9] 0 | [10] 0 | [11] 0 | [12] 0 | [13] 0 | [14] 0 | [15] 0 | [16] 0 | [17] 0 | [18] 0 | [19] 0 | [20] 0

C/C=C(/C)C(=O)O[C@H]1Cc2cc3ccc(=O)oc3cc2OC1(C)C [Decursinol angelate] (10 µM)
inactive: [1] 0 | [2] 0 | [3] 0 | [4] 0 | [5] 0 | [6] 0 | [7] 0 | [8] 0 | [9] 0 | [10] 0 | [11] 0 | [12] 0 | [13] 0 | [14] 0 | [15] 0 | [16] 0 | [17] 0 | [18] 0 | [19] 0 | [20] 0

COCCOc1cc2nccc(Nc3n[nH]c(C)c3C)c2cc1S(=O)(=O)C(C)(C)C [RIP2 kinase inhibitor 2] (2.5 µM)
inactive: [1] 0 | [2] 0 | [3] 0 | [4] 0 | [5] 0 | [6] 0 | [7] 0 | [8] 0 | [9] 0 | [10] 0 | [11] 0 | [12] 0 | [13] 0 | [14] 0 | [15] 0 | [16] 0 | [17] 0 | [18] 0 | [19] 0 | [20] 0

COc1cc2ncnc(Nc3ccc(O)cc3)c2cc1OC (10 µM)
inactive: [1] 0 | [2] 0 | [3] 0 | [4] 0 | [5] 0 | [6] 0 | [7] 0 | [8] 0 | [9] 0 | [10] 0 | [11] 0 | [12] 0 | [13] 0 | [14] 0 | [15] 0 | [16] 0 | [17] 0 | [18] 0 | [19] 0 | [20] 0

CC(C)c1cnn2c(NCc3ccccc3)cc(NC[C@H]3CCNC[C@@H]3O)nc12 [Samuraciclib (hydrochloride)] (10 µM)
inactive: [1] 0 | [2] 0 | [3] 0 | [4] 0 | [5] 0 | [6] 0 | [7] 0 | [8] 0 | [9] 0 | [10] 0 | [11] 0 | [12] 0 | [13] 0 | [14] 0 | [15] 0 | [16] 0 | [17] 0 | [18] 0 | [19] 0 | [20] 0

COc1cc(N2CCC(N)CC2)ccc1Nc1ncc(Cl)c(-c2c[nH]c3ccccc23)n1 (2.5 µM)
inactive: [1] 0 | [2] 0 | [3] 0 | [4] 0 | [5] 0 | [6] 0 | [7] 0 | [8] 0 | [9] 0 | [10] 0 | [11] 0 | [12] 0 | [13] 0 | [14] 0 | [15] 0 | [16] 0 | [17] 0 | [18] 0 | [19] 0 | [20] 0

CC(C)Oc1cc(Nc2nc(N[C@@H](C)c3ccc(F)cn3)ncc2Cl)n[nH]1 (10 µM)
inactive: [1] 0 | [2] 0 | [3] 0 | [4] 0 | [5] 0 | [6] 0 | [7] 0 | [8] 0 | [9] 0 | [10] 0 | [11] 0 | [12] 0 | [13] 0 | [14] 0 | [15] 0 | [16] 0 | [17] 0 | [18] 0 | [19] 0 | [20] 0

Structural class: the compounds so far containing an aryl methoxy group
C=CC(=O)N[C@H]1COC[C@H]1Nc1ncc2cc(-c3c(Cl)c(OC)cc(OC)c3Cl)c(=O)n(C)c2n1 (10 µM)
inactive: [1] 0 | [2] 0 | [3] 0 | [4] 0 | [5] 0 | [6] 0 | [7] 0 | [8] 0 | [9] 0 | [10] 0 | [11] 0 | [12] 0 | [13] 0 | [14] 0 | [15] 0 | [16] 0 | [17] 0 | [18] 0 | [19] 0 | [20] 0

COc1c(CC=C(C)C)c(O)cc2oc(=O)c(-c3ccc(O)cc3O)cc12 [Glycycoumarin] (10 µM)
inactive: [1] 0 | [2] 0 | [3] 0 | [4] 0 | [5] 0 | [6] 0 | [7] 0 | [8] 0 | [9] 0 | [10] 0 | [11] 0 | [12] 0 | [13] 0 | [14] 0 | [15] 0 | [16] 0 | [17] 0 | [18] 0 | [19] 0 | [20] 0

COc1cc2ncnc(Nc3ccc(O)cc3)c2cc1OC (10 µM)
inactive: [1] 0 | [2] 0 | [3] 0 | [4] 0 | [5] 0 | [6] 0 | [7] 0 | [8] 0 | [9] 0 | [10] 0 | [11] 0 | [12] 0 | [13] 0 | [14] 0 | [15] 0 | [16] 0 | [17] 0 | [18] 0 | [19] 0 | [20] 0

COc1cc(N2CCC(N)CC2)ccc1Nc1ncc(Cl)c(-c2c[nH]c3ccccc23)n1 (2.5 µM)
inactive: [1] 0 | [2] 0 | [3] 0 | [4] 0 | [5] 0 | [6] 0 | [7] 0 | [8] 0 | [9] 0 | [10] 0 | [11] 0 | [12] 0 | [13] 0 | [14] 0 | [15] 0 | [16] 0 | [17] 0 | [18] 0 | [19] 0 | [20] 0

(next part)

O=C(Nc1ccc(-c2ccnc(Nc3ccc(N4CCOCC4)cc3)n2)cc1)C1CCCN1 (stereo not given) (10 µM)
inactive: [1] 0 | [2] 0 | [3] 0 | [4] 0 | [5] 0 | [6] 0 | [7] 0 | [8] 0 | [9] 0 | [10] 0 | [11] 0 | [12] 0 | [13] 0 | [14] 0 | [15] 0 | [16] 0 | [17] 0 | [18] 0 | [19] 0 | [20] 0
